PubChem BioAssay AID1259425 | University of Nebraska Medical Center, 2018

- Purpose: 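Seek colon cancer weak points whose silencing resembles KSR1 loss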 (primary screen)
- System: HCT116 human colon cancer cells
- Reagent: siRNA pool against human genes, 50 nM siRNA
- Measurement: 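After 50 nM siRNA pool, branched-DNA assay measures six marker transcripts per well, minus blank, normalised to the geometric mean of two housekeeping transcripts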
- Direction: BNIP3L mRNA: higher = more BNIP3L transcript after knockdown; NDRG1 mRNA: higher = more NDRG1 transcript after knockdown; BNIP3 mRNA: higher = more BNIP3 transcript after knockdown; ALDOC mRNA: higher = more ALDOC transcript after knockdown; ACSL5 mRNA: higher = more ACSL5 transcript after knockdown
This is one part, drawn at random, of about 14,000 reagents. The record does not give: the time to read-out.

| Gene | BNIP3L mRNA, set 1 | NDRG1 mRNA, set 1 | BNIP3 mRNA, set 1 | ALDOC mRNA, set 1 | ACSL5 mRNA, set 1 |
| --- | --- | --- | --- | --- | --- |
| SLAMF8 | 0.0649 | 0.115 | 0.27 | 0.0285 | 0.235 |
| PCGF2 | 0.0615 | 0.081 | 0.24 | 0.0239 | 0.13 |
| ADH7 | 0.163 | 0.445 | 0.434 | 0.145 | 0.161 |
| MYO1A | 0.101 | 0.279 | 0.196 | 0.036 | 0.322 |
| PEX1 | 0.538 | 1.54 | 0.774 | 0.0586 | 0.407 |
| AMBN | 0.0619 | 0.241 | 0.216 | 0.0266 | 0.151 |
| CBX4 | 0.0577 | 0.228 | 0.311 | -0.0094 | 0.209 |
| SCN3A | 0.046 | 0.143 | 0.234 | 0.0206 | 0.146 |
| TAAR1 | 0.306 | 0.251 | 0.71 | 0.0717 | 0.229 |
| FOSL2 | 0.0914 | 0.0877 | 0.248 | 0.00829 | 0.204 |
| DLST | 0.12 | 0.184 | 0.595 | 0.0356 | 0.298 |
| DDX28 | 0.0862 | 0.16 | 0.299 | 0.0537 | 0.134 |

3 of these entries in another layout:
ADH7 → BNIP3L mRNA, set 1 = 0.163; NDRG1 mRNA, set 1 = 0.445; BNIP3 mRNA, set 1 = 0.434; ALDOC mRNA, set 1 = 0.145; ACSL5 mRNA, set 1 = 0.161
MYO1A → BNIP3L mRNA, set 1 = 0.101; NDRG1 mRNA, set 1 = 0.279; BNIP3 mRNA, set 1 = 0.196; ALDOC mRNA, set 1 = 0.036; ACSL5 mRNA, set 1 = 0.322
PEX1 → BNIP3L mRNA, set 1 = 0.538; NDRG1 mRNA, set 1 = 1.54; BNIP3 mRNA, set 1 = 0.774; ALDOC mRNA, set 1 = 0.0586; ACSL5 mRNA, set 1 = 0.407

Continued.
| Gene | BNIP3L mRNA, set 1 | NDRG1 mRNA, set 1 | BNIP3 mRNA, set 1 | ALDOC mRNA, set 1 | ACSL5 mRNA, set 1 |
| --- | --- | --- | --- | --- | --- |
| PROS1 | 0.0725 | 0.289 | 0.284 | 0.0165 | 0.164 |
| ARSF | 0.108 | 0.164 | 0.21 | 0.0262 | 0.105 |
| KRTAP4-12 | 0.116 | 0.23 | 0.416 | 0.0454 | 0.445 |
| DNAJA4 | 0.057 | 0.135 | 0.191 | 0.00677 | 0.124 |
| IFT25 | 0.062 | 0.183 | 0.269 | 0.0356 | 0.183 |
| PGM3 | 0.182 | 0.152 | 0.326 | 0.0525 | 0.147 |
| PLEKHB2 | 0.108 | 0.207 | 0.289 | 0.0415 | 0.182 |
| PKLR | 0.123 | 0.503 | 0.349 | 0.0214 | 0.296 |
